This note sets out measurements from article PMC7862700.

The other results are listed elsewhere or left out. Construct or isoform of the protein are uncertain.

The target in this assay is T1, ETS1 (UniProt P14921).
T1 sequence: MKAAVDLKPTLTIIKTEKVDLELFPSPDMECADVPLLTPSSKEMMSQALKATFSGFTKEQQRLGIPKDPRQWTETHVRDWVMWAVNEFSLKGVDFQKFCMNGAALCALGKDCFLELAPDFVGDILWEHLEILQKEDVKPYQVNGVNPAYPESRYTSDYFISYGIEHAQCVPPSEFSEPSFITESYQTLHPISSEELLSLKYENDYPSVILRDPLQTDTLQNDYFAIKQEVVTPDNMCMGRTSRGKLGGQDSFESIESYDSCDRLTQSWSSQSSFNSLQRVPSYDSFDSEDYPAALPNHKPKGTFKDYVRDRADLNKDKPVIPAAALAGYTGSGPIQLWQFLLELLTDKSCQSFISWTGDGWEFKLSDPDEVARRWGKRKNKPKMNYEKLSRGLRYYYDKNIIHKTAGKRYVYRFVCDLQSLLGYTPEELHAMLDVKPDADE
Nature of the assay: DAPPL (digital affinity profiling via proximity ligation, sequencing). The note with it: 10 mM Tris-HCl pH 7.5, 50 mM NaCl, 1 mM DTT, 4% glycerol, room temperature, 30 min; GST-TFs on glutathione beads, 16-mer random dsDNA library, 0.1% …; high values mean tight binding; double strand, one strand shown; scale: fold enrichment (6-mer frequency, TF over GST control).
As to AGCCCT, the binding signal came to 1.2.
Sequence CAACCA displayed a binding signal of 1.13.
For TATCCG, the binding signal worked out at 2.38.
The sequence GCTTAG came in with a binding signal of 1.07.
As for GCGATG, the figure is 1.16; as for TGTTCA, 1.13.
Sequence ATGAAT came in with a binding signal of 1.16.
The sequence AATTTA registered a binding signal of 1.29.
The value for ATGCAC was 1.23; that for GATGGC was 1.47.
TCACAC gave a binding signal of 1.36.
Consider CTTCTG, for which the binding signal was found to be 1.53.
Take TCGCTT: the binding signal was 1.12.
Consider CTGTCA, for which the binding signal was 1.18.
Consider CCTAAA, for which the binding signal was found to be 1.37.
As to TAATTT, the binding signal is 1.48.
The sequence GGCTCA came in with a binding signal of 1.17.
The value for CTAAAA was 1.15.
On to AGTTCC, for which the binding signal turned out to be 2.14.
The value for TACCCT was 1.41; that for GGTTTC was 1.53.
Consider GAACCT, for which the binding signal stood at 1.11.
As to CTGCAC, the binding signal is 1.14.
The value for ACTTAC was 1.2.
In turn, TAAGGT showed a binding signal of 1.12.
As for TTAGCG, the figure is 1.02; as for CCTATG, 1.28.
As for CCTGAT, the figure is 1.39.
With CCATTG, the binding signal came to 1.18.
Take TAATGA: the binding signal was determined as 1.08.
As for ATAAAC, the figure is 1.18.
In turn, ATACCC showed a binding signal of 1.21.
As to AATTCA, the binding signal came out at 1.42.
As for CTCCTT, the figure is 1.78; as for GGCTAG, 1.16.
Turning to GAAAAG, the binding signal was 1.08.
For the sequence CTTTCA, the binding signal was 1.34.
In turn, GGGCTT displayed a binding signal of 1.22.
For the sequence GATATC, the binding signal turned out to be 1.53.
